# Source: PubChem BioAssay AID1347076 (National Center for Advancing Translational Sciences (NCATS), 2019)
# Among all 400,000 compounds or so, about 13,000 (3.2%) were called active. Inconclusive results, whose numbers are uncertain, are shown with a selection of clear calls. Calls follow the shape of the dose curve; as a rule, active = well fitted cell-killing curve with a large enough effect; inconclusive = small, poorly fitted or top-dose-only effect, or effect the other way; inactive = flat fitted curve, though single readings scatter. Potencies beside an inconclusive call are fits to weak or partial responses and may not hold up.
# Assay: qHTS assay for MDR1-selective chemotherapeutics: Primary screen using the drug-selected MDR subline cells KB-V1; also: nearly all actives have a fitted effect of over 60% in size
# Settings: KB-V1 MDR cells viability, CellTiter-Glo, 72 h; activity change, negative = cytotoxicity: at 46.1 µM (top of the series)
# Method in brief: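 Drug-selected KB-V1 cells, grown in DMEM lacking phenol red with 10% FBS, receive compound titrations; after three days at 37 degrees C, surviving cell ATP is quantified by CellTiter-Glo luminescence and responses normalized and curve-fitted.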
# % is scaled to controls: 0 for no effect and ±100 for the full control effect; potency is read from the fitted curve at half-maximal effect.
Compound,Potency,"activity change, negative = cytotoxicity"
CC(NC(=S)NC1CCC(C(C)(C)C)CC1)c1ccccc1 (stereo not drawn),"inconclusive: 29.1 µM [cytotoxic, single point]",–
CCCn1c(NC(=O)c2ccc(Cl)c(S(=O)(=O)N3CCCC3)c2)nc2ccccc21,"inconclusive: 18.4 µM [cytotoxic, partial curve, poor fit]",–
CCc1nc2ccc(C(=O)NCCCn3ccnc3)cn2c1N(CC)CCOC,inactive,–
CCC1Nc2ncnc(N3CCc4ccccc4C3)c2N(Cc2ccc(Br)cc2)C1=O (stereo not drawn),"inconclusive: 29.1 µM [cytotoxic, single point]",–
CCCCOc1ccc(N(CC(=O)NC2CCCCC2)C(=O)CCC(=O)Nc2ccccn2)cc1,inactive,–
CNC(=O)c1cccc(NC(=O)c2cc(-c3ccccc3)nc3c2cnn3C(C)C)c1,"inconclusive: 20.6 µM [cytotoxic, single point]",–
CC(C)(CNC(=O)c1sc2cc(F)ccc2c1Cl)N1CCOCC1,"inconclusive: 32.6 µM [cytotoxic, single point]",–
COc1ccc(CCNC(=O)CCCn2c(=O)[nH]c3cc(OC)c(OC)cc3c2=O)cc1OC,"inconclusive: 6.51 µM [rising, partial curve]",–
CC(=O)Nc1cccc(NC(=O)C2(c3cccs3)CCOCC2)c1,inactive,–
Cc1ccc(SCc2nc(-c3ccc(C(=O)NCc4ccccc4Cl)cc3)oc2C)cc1,"inconclusive: 1.84 µM [cytotoxic, full curve]",–
Cc1ccc(NC(=O)c2nc(S(=O)(=O)Cc3ccccc3F)ncc2Cl)cc1,"inconclusive: 5.8 µM [rising, full curve, poor fit]",–
OCC1(Cc2ccccc2)CCN(C2CCN(c3ccc(F)c(F)c3)CC2)CC1,"inconclusive: 23.1 µM [cytotoxic, single point]",–
Cc1ccc(S(=O)(=O)n2c([N+](=O)[O-])cnc2C)c(C)c1C,–,inconclusive: 30.3%
COc1cc2c(cc1OC)C(C)N(C(=O)C(NC(=O)c1ccccc1)C(C)C)CC2 (stereo not drawn),inactive,–
Cc1nc(N2CCN(Cc3ccccc3)CC2)nc2c1CCC2,inactive,–
COc1ccc(N2CCN(C(=O)COC(=O)c3ccc(CSC)o3)CC2)cc1,"inconclusive: 14.6 µM [cytotoxic, single point]",–
O=C(NCc1ccccc1Cl)c1cnc2ccccc2n1,"inconclusive: 16.4 µM [cytotoxic, partial curve, poor fit]",–
COc1cccc(C2CC(=O)Nc3cc(C)c(C)cc32)c1 (stereo not drawn),active: 20.6 µM,–
O=C(NN1C(=O)C2C3C=CC([C@H]4CC34)[C@@H]2C1=O)c1ccc(Br)cc1 (stereo partly drawn),"inconclusive: 29.1 µM [cytotoxic, single point]",–
COc1ccc(CNC(=O)COC(=O)c2ccc(S(=O)(=O)N3CCCCC3)cc2)cc1,inactive,–
CCCc1ccc(OCc2ccc(C(=O)N3CCN(c4ccccn4)CC3)o2)c(OC)c1,active: 3.66 µM,–
COc1ccc(C(=O)Nc2nc3ccc(S(=O)(=O)N4CCCC4)cc3s2)cc1,"inconclusive: 14.6 µM [rising, partial curve, poor fit]",–
CC(=O)c1cccc(NC(=O)N2C3CCC2CC(NC(=O)Nc2ccccc2)C3)c1 (stereo not drawn),inactive,–

Compound,Potency,"activity change, negative = cytotoxicity"
O=C(c1cc(Cl)cc(Cl)c1)N1CCC(=O)N(C(COCc2ccccc2)Cc2ccccc2)CC1 (stereo not drawn),inactive,–
COc1ccc(CNc2oc(COc3cccc(C)c3)nc2C#N)cc1,"inconclusive: 20.6 µM [cytotoxic, single point]",–
CC(C)CCN(CCC(C)C)CC(O)Cn1c2ccccc2c(=O)c2ccccc21 (stereo not drawn),"inconclusive: 2.06 µM [cytotoxic, full curve, poor fit]",–
O=C(Nc1ccc(NC(=O)c2ccc(Br)cc2)c(Cl)c1)c1ccc(Br)cc1,"inconclusive: 29.1 µM [rising, single point]",–
Cc1ccc(NC2CCCN(C(=O)CCn3nccc3C)C2)cc1C (stereo not drawn),"inconclusive: 14.6 µM [cytotoxic, partial curve, poor fit]",–
COc1ccccc1-c1nnc(C2CCN(S(=O)(=O)c3ccccc3)CC2)o1,inactive,–
Cc1ccc(Cn2cnc3ccccc32)cc1,"inconclusive: 29.1 µM [cytotoxic, single point]",–
CCc1cccc(CC)c1-n1c(SCn2nnc3ccccc3c2=O)nnc1-c1cccnc1,"inconclusive: 29.1 µM [cytotoxic, single point]",–
Nc1nc2ccc([N+](=O)[O-])c(N)c2s1,"inconclusive: 29.1 µM [cytotoxic, single point]",–
N#Cc1ccccc1/C=N/Nc1nc(-c2ccccc2)c2cc(Cl)ccc2n1,"inconclusive: 20.6 µM [cytotoxic, single point]",–
CC(=O)Nc1ccc(S(=O)(=O)N(CC(=O)NC2CC2)Cc2ccccc2)cc1,"inconclusive: 29.1 µM [rising, single point]",–
CCCN(CCC)C(C(=O)Nc1cccc(OC)c1)c1ccccc1 (stereo not drawn),"inconclusive: 18.4 µM [cytotoxic, partial curve]",–
COc1ccc(-c2nc(C(=O)O)cs2)cc1OC,"inconclusive: 20.6 µM [rising, single point]",–
Cc1ccc(C(=O)O)cc1NC(=S)NC(=O)c1ccc(COc2ccccc2)cc1,inactive,–
CC(=O)Nc1ccc(-c2ccnc3c2CC(C)(C(=O)NCc2ccc(N4CCN(C)CC4)cc2)O3)cc1 (stereo not drawn),inactive,–
COc1ccc(NC(=O)CN2CCN(c3ccc(C)cc3C)CC2)cc1,"inconclusive: 29.1 µM [cytotoxic, single point]",–
COc1ccc([C@H]2C=C3CN(C(=O)OC(C)(C)C)S(=O)(=O)[C@H]3C[C@H]2OC(=O)c2cccs2)cc1,"inconclusive: 11.6 µM [cytotoxic, partial curve, poor fit]",–
COc1cccc(-c2nc(CS(=O)(=O)CC(=O)NCCCN3CCN(C)CC3)c(C)o2)c1,"inconclusive: 7.31 µM [rising, partial curve, poor fit]",–
Nc1nc(Cl)cc(N2CCC(c3cc(-c4ccc(Cl)cc4Cl)n[nH]3)CC2)n1,active: 23.1 µM,–
N#Cc1ccc(NC(=O)c2nc(-c3ccccc3)n(-c3ccccc3)n2)cc1,inactive,–
CCN(CC)S(=O)(=O)c1cccc(C(=O)Nc2ccc(Cl)cn2)c1,active: 11.6 µM,–
C(=C\c1nccc2ccccc12)/c1ccc(N2CCOCC2)cc1,"inconclusive: 16.4 µM [cytotoxic, single point]",–
Cc1cc(C)nc(N2N=C(CSc3ccc(Cl)cc3)CC2=O)n1,"inconclusive: 23.1 µM [cytotoxic, partial curve, poor fit]",–

# An excerpt of these results, with bars between the fields.
Compound | Potency | activity change, negative = cytotoxicity
CNC(=O)c1cccc(NC(=O)c2cc(-c3ccccc3)nc3c2cnn3C(C)C)c1 | inconclusive: 20.6 µM [cytotoxic, single point] | –
Cc1ccc(SCc2nc(-c3ccc(C(=O)NCc4ccccc4Cl)cc3)oc2C)cc1 | inconclusive: 1.84 µM [cytotoxic, full curve] | –
OCC1(Cc2ccccc2)CCN(C2CCN(c3ccc(F)c(F)c3)CC2)CC1 | inconclusive: 23.1 µM [cytotoxic, single point] | –
COc1ccc(N2CCN(C(=O)COC(=O)c3ccc(CSC)o3)CC2)cc1 | inconclusive: 14.6 µM [cytotoxic, single point] | –
COc1ccc(-c2nc(C(=O)O)cs2)cc1OC | inconclusive: 20.6 µM [rising, single point] | –

# Going on with the list:

Compound,Potency,"activity change, negative = cytotoxicity"
COc1ccc(N(CC(=O)NCc2ccc(F)cc2)C(=O)CCC(=O)Nc2ccccn2)cc1,"inconclusive: 9.2 µM [cytotoxic, partial curve, poor fit]",–
COc1ccc(CCNC(=O)CSc2ccccn2)cc1OC,inactive,–
S=c1[nH]nc(Cc2cccs2)n1-c1cccc2ccccc12,"inconclusive: 14.6 µM [cytotoxic, partial curve]",–
O=C(NC1CCCc2c1cnn2-c1ccccc1F)c1ccccn1 (stereo not drawn),"inconclusive: 3.26 µM [cytotoxic, full curve]",–
COc1cccc(C2=NN(C(=O)c3ccc(C)o3)C(O)(C(F)(F)F)C2)c1 (stereo not drawn),"inconclusive: 29.1 µM [cytotoxic, single point]",–
CCCCCN(C(=O)CCC(=O)OCC(=O)N1CCC(C)CC1)c1c(N)n(CCCC)c(=O)[nH]c1=O,"inconclusive: 0.411 µM [rising, full curve, poor fit]",–
NC(=O)CC1C(=O)N(c2ccccc2)C(=S)N1NC(=O)c1ccccc1 (stereo not drawn),inactive,–
COc1cc(NS(=O)(=O)c2ccc(NC(C)=O)cc2)nc(OC)n1,inactive,–
Cc1ccc(N2CCN(C(=O)C(=O)c3cccc([N+](=O)[O-])c3)CC2)cc1,"inconclusive: 20.6 µM [cytotoxic, partial curve, poor fit]",–
CC(C)c1nnc(NC(=O)c2ccc3c(c2)OCO3)s1,inactive,–
CCc1nn(C(C)C(=O)Nc2cccc(C)c2C)c(=O)c2cc3occc3n12 (stereo not drawn),"inconclusive: 29.1 µM [cytotoxic, single point]",–
CC(CNC(=O)c1ccc(Cn2c(SCc3ccccc3)nc3cccnc32)cc1)c1ccccc1 (stereo not drawn),"inconclusive: 13 µM [cytotoxic, partial curve, poor fit]",–
COC(=O)C1=C(C)N(CCCC(=O)O)C(=O)NC1c1cccc(OC)c1 (stereo not drawn),"inconclusive: 29.1 µM [rising, single point]",–
CC(=O)Nc1cc(-c2ccccc2N(C)C)cn2c(-c3ccc(F)c(Cl)c3)cnc12,"inconclusive: 18.4 µM [cytotoxic, single point]",–
Cc1ccc(SCCNC(=O)CN(c2ccc3c(c2)OCO3)S(C)(=O)=O)cc1,"inconclusive: 16.4 µM [cytotoxic, single point]",–
NC(N)=N/N=C/c1ccc(OCc2ccccc2Cl)cc1,inactive,–
N#CC[C@H](Cc1ccccc1)N1CCN(Cc2ccccc2)CCC1=O,"inconclusive: 23.1 µM [cytotoxic, partial curve, poor fit]",–
COc1cc(CNc2ccc(N3CCOCC3)cc2)cc(Br)c1OC,inactive,–
CC(=O)Nc1ccc(N(C(=O)CNC(=O)c2ccco2)C(C(=O)NCc2ccco2)c2ccccc2F)cc1 (stereo not drawn),inactive,–
C[C@H]1CN([C@@H](C)CO)S(=O)(=O)c2ccc(Br)cc2O[C@H]1CN(C)C(=O)CCN1CCCCC1,"inconclusive: 29.1 µM [rising, single point]",–
Cc1nc(SCC(=O)N2CCN(c3ccccc3)CC2)n[nH]1,inactive,–
CN(CCO)c1ccc2c(c1)OC[C@H](Cc1ccccc1)NS2(=O)=O,"inconclusive: 9.2 µM [rising, partial curve, poor fit]",–
